Laboratory results reported in the supplement of paper PMC10849652.
The other results are listed elsewhere or left out.

Chains of the proteins cited; added tags and fusions are not shown. Lines headed by an entry give the natural chain unless they say otherwise; changes in a name come on top.
UniProt Q7Z434: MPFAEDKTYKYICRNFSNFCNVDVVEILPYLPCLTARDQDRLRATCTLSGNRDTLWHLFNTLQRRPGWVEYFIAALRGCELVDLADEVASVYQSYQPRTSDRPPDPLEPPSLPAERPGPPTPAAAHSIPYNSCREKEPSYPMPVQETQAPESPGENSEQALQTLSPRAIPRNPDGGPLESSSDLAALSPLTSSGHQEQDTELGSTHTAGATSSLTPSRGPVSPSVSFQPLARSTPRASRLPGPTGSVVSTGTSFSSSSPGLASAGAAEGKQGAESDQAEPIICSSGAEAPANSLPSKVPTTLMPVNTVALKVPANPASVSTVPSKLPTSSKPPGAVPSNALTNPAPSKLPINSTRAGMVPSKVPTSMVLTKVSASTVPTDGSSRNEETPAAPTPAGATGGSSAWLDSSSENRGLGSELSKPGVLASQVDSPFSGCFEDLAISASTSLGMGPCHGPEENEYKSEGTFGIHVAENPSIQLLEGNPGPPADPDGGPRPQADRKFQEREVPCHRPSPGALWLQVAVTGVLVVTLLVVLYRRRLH
UniProt Q9NRN9: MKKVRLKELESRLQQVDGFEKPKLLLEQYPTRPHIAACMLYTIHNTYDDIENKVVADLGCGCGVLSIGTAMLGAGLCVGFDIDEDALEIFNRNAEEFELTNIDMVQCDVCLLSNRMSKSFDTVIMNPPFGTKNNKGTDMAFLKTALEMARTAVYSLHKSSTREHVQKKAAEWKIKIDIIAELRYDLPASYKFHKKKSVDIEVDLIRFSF
UniProt Q15528: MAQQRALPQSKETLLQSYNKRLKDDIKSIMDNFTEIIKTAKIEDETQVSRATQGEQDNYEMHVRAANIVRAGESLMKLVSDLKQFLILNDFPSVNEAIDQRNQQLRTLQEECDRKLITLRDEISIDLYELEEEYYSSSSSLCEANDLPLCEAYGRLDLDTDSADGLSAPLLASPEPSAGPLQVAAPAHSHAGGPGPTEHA
UniProt Q8WXB1: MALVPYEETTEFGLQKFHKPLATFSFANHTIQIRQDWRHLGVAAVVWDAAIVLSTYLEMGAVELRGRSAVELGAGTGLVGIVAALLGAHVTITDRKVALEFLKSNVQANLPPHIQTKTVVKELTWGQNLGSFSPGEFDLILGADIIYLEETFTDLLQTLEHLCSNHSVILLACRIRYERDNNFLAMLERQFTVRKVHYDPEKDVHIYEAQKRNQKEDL
UniProt Q12866: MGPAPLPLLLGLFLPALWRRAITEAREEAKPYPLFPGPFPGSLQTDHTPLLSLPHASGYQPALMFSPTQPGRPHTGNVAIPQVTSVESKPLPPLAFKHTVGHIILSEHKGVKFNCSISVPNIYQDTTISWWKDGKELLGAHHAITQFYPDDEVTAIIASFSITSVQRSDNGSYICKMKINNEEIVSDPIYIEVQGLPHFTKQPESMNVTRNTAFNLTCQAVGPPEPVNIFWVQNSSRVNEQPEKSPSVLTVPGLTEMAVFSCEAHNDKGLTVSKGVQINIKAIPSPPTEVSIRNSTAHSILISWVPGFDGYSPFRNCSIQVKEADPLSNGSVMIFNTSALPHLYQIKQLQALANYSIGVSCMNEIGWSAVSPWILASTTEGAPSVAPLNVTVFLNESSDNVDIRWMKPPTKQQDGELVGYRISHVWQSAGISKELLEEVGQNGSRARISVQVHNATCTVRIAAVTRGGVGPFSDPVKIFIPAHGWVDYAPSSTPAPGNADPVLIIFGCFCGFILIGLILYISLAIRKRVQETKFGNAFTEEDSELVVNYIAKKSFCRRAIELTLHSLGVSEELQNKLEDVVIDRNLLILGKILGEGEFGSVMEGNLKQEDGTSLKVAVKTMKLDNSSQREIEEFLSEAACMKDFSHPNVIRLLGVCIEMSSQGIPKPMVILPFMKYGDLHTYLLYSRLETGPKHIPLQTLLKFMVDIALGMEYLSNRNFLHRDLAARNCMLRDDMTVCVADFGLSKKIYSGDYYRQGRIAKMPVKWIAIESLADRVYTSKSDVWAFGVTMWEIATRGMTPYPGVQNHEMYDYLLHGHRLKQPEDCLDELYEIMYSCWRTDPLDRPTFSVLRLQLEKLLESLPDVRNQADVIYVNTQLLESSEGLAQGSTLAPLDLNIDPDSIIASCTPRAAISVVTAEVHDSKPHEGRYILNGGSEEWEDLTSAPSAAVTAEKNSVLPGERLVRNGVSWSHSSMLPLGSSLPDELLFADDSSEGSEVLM
UniProt Q14814: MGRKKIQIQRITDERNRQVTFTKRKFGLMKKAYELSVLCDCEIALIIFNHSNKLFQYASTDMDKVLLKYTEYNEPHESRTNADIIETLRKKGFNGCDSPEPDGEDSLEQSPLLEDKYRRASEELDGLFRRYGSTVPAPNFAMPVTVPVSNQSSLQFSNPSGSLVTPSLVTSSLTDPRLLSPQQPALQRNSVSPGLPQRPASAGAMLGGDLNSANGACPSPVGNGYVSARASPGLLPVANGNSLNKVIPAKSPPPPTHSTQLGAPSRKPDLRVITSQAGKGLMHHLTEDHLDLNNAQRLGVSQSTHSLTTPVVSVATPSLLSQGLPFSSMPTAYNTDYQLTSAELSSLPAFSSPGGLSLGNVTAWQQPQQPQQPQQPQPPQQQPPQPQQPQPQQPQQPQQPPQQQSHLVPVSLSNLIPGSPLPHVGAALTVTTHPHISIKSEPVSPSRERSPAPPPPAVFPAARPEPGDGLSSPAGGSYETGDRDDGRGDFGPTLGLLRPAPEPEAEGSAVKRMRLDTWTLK
UniProt P61244, whole entry, looked up: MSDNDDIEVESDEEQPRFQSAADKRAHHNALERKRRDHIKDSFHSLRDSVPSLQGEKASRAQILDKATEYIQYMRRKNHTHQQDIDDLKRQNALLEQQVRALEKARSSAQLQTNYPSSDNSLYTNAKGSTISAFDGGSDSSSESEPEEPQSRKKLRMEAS
UniProt Q14696: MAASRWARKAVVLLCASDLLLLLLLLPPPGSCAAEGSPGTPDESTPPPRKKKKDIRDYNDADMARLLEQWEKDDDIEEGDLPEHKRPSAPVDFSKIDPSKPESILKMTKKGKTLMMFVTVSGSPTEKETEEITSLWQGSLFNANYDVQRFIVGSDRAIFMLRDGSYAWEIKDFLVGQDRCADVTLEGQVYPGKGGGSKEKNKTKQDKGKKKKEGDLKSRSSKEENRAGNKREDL
UniProt Q9BUT9: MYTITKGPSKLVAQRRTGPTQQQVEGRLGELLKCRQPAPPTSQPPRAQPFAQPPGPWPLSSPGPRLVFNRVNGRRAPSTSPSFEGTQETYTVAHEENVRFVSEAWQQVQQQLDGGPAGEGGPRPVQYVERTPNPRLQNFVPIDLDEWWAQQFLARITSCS
UniProt Q02078: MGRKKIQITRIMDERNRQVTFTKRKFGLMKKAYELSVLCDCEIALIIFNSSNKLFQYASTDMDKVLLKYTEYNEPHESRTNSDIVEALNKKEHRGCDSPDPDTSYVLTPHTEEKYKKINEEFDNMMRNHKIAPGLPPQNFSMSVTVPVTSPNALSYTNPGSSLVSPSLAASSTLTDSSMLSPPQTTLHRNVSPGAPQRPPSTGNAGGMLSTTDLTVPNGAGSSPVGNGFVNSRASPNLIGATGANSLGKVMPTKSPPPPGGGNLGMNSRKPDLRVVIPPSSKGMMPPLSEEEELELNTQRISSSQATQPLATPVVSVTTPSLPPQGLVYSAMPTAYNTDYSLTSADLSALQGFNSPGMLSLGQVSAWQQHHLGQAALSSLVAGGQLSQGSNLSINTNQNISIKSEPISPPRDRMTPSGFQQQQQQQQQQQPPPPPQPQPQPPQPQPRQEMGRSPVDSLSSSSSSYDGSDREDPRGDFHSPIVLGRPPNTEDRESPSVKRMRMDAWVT
UniProt Q9NWR8: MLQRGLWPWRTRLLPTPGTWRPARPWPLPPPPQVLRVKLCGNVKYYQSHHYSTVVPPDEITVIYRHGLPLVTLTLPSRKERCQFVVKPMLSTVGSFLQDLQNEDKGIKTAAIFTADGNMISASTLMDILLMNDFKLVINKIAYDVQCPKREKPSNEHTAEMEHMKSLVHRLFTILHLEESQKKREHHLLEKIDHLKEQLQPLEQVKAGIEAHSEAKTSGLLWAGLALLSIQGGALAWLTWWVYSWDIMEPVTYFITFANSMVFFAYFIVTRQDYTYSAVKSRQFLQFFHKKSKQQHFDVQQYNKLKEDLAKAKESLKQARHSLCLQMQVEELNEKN
UniProt Q9BV79: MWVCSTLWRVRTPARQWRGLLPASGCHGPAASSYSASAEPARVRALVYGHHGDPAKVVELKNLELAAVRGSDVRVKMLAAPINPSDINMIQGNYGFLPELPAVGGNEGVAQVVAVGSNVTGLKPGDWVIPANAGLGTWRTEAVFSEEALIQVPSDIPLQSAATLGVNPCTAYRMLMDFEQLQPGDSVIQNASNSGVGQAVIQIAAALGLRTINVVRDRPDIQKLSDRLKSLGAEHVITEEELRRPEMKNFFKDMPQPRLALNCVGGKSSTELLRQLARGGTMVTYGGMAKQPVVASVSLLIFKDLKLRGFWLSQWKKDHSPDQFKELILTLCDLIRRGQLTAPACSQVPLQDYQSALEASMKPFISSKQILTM
UniProt Q9GZU1, whole entry, looked up: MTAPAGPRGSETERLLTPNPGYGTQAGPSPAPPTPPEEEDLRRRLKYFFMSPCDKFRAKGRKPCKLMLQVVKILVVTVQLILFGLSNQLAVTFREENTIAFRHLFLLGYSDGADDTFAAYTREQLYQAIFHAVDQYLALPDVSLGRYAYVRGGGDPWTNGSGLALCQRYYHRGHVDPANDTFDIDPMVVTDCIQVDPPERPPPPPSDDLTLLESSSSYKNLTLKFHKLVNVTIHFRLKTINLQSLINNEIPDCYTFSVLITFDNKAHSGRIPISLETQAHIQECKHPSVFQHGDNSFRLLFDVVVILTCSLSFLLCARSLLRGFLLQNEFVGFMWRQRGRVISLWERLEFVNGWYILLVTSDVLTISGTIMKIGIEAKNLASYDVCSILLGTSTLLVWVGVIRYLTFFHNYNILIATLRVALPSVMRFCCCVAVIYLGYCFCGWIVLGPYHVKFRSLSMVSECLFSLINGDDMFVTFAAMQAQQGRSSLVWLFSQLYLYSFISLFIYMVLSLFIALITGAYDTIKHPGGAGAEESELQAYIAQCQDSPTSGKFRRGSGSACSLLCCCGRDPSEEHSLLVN
UniProt Q6P9B6: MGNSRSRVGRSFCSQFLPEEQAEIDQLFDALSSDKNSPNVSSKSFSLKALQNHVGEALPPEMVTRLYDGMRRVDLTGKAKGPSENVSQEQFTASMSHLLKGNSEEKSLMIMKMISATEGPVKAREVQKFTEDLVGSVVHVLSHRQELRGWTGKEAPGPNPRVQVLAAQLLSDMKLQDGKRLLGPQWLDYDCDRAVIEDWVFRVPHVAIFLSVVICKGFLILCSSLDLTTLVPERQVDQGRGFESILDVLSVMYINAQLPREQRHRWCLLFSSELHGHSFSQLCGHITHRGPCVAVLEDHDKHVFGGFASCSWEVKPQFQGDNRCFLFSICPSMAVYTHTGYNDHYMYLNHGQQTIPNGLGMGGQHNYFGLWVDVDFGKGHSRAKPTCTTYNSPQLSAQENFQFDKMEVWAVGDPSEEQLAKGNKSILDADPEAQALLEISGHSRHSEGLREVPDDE
UniProt P23368: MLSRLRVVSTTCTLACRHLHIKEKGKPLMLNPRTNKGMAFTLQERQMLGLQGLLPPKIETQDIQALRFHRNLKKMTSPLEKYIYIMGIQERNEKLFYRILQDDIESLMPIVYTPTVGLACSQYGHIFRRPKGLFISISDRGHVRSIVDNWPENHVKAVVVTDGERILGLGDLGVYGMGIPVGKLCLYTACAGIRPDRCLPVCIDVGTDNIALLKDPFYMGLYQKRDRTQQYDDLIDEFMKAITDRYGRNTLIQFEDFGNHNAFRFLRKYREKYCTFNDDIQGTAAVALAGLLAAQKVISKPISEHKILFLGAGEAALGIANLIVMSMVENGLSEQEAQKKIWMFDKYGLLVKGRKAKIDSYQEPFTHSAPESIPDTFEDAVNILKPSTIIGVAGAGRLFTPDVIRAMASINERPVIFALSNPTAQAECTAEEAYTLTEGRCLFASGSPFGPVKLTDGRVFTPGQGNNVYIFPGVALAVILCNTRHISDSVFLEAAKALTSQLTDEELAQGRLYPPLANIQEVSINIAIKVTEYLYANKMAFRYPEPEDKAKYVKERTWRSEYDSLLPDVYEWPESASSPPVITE
UniProt Q08431: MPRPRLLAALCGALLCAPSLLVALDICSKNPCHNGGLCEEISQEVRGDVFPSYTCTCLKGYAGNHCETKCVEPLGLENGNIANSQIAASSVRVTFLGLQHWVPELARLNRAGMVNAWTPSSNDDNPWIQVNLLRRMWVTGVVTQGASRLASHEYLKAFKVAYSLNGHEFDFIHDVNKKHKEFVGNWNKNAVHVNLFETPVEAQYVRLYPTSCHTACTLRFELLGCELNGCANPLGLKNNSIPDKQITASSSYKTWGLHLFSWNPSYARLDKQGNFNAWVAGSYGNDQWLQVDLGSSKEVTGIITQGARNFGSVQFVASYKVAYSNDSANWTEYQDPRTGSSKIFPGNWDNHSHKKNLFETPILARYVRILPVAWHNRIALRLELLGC
UniProt Q9BTT4: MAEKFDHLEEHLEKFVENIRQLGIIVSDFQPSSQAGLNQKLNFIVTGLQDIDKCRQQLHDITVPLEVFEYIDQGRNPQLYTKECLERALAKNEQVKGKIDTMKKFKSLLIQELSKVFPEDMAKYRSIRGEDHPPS

Experiments:
Experiment in all cases: log2 fold change, soluble protein after heating vs DMSO (PISA); higher = thermal stabilisation; K562 lysate, 10 uM; active = over 0.2 and 3.5 SD of the protein, either way, in both replicates (recomputed)
[1] = compound: Cc1cn(-c2cc(NC(=O)c3ccc(C)c(Nc4nccc(-c5cccnc5)n4)c3)cc(C(F)(F)F)c2)cn1 [nilotinib]
Outline: (§1)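 Log-two fold change in thermal stability relative to solvent controls is reported from duplicates. For each sample, crude K562 extract from dounce-homogenised pellets in PBS pH 7.4 with 1 mM MgCl2, at 1 mg/mL protein, was treated with 10 μM compound for 30 min. Aliquots heated for 3 min across 48°C-58°C were pooled, brought to 0.5% NP-40 at 4°C and cleared at 21,000xg for 90 min. The supernatant was quantified by TMTpro 16plex LC-MS/MS with channel sums equalised.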

[2] = compound: Cc1nc(Nc2n[nH]c3c2CN(C(=O)N[C@H](CN(C)C)c2ccccc2)C3(C)C)c2sccc2n1
Outline: as §1

[3] = compound: Cc1nc(Nc2ncc(C(=O)Nc3c(C)cccc3Cl)s2)cc(N2CCN(CCO)CC2)n1 [dasatinib]
Outline: as §1

[4] = compound: Cc1ncc(-c2ccnc(Nc3ccc(S(C)(=O)=O)cc3)n2)n1C(C)C
Outline: as §1

[5] = compound: Cn1cc(-c2ccc3c(c2)CCN3C(=O)Cc2cccc(C(F)(F)F)c2)c2c(N)ncnc21
Outline: as §1

[6] = compound: Cn1cc(CNCC2CCN(c3ncc(C(=O)NO)cn3)CC2)c2ccccc21 [quisinostat]
Outline: as §1

[7] = compound: Cn1cncc1[C@@](N)(c1ccc(Cl)cc1)c1ccc2c(c1)c(-c1cccc(Cl)c1)cc(=O)n2C [tipifarnib]
Outline: as §1

[8] = compound: NC(=O)Nc1cc(-c2cccc(F)c2)sc1C(=O)N[C@H]1CCCNC1
Outline: as §1

[9] = compound: NC(=O)c1cnc(N[C@@H]2CCCC[C@@H]2N)nc1Nc1cccc(-n2nccn2)c1
Outline: as §1

[10] = compound: NC1(c2ccc(-c3nc4ccn5c(=O)[nH]nc5c4cc3-c3ccccc3)cc2)CCC1
Outline: as §1

Measured: log2 fold change

MAVS (UniProt Q7Z434)
inactive: [1] 0.032 | [2] -0.041 | [3] 0.002 | [4] -0.037 | [5] -0.022 | [6] -0.03 | [7] -0.009 | [8] -0.003 | [9] -0.013 | [10] 0.018

MCCC2 (UniProt Q9HCC0)
inactive: [1] 0.022 | [2] -0.011 | [3] 0.088 | [4] -0.011 | [5] -0.011 | [6] -0.011 | [7] 0.009 | [8] -0.003 | [9] -0.03 | [10] -0.027

MELK (UniProt Q14680)
inactive: [1] 0.142 | [2] 0.034 | [3] 0 | [4] -0.045 | [5] 0.043 | [6] -0.209 | [7] -0.117 | [8] -0.156 | [9] -0.053 | [10] -0.123

METTL5 (UniProt Q9NRN9)
inactive: [1] 0.017 | [2] -0.023 | [3] -0.034 | [4] -0.002 | [5] 0.013 | [6] -0.026 | [7] 0.015 | [8] -0.018 | [9] -0.008 | [10] -0.04

MED22 isoform 2 (UniProt Q15528)
inactive: [1] 0.002 | [2] -0.004 | [3] 0.027 | [4] 0.025 | [5] -0.002 | [6] -0.016 | [7] 0.049 | [8] -0.061 | [9] 0 | [10] 0.011

METTL21A (UniProt Q8WXB1)
inactive: [1] 0.017 | [2] 0.055 | [3] 0.023 | [4] 0.026 | [5] -0.064 | [6] -0.069 | [7] -0.005 | [8] -0.001 | [9] -0.007 | [10] 0.003

MERTK (UniProt Q12866)
inactive: [1] -0.017 | [2] -0.006 | [3] -0.078 | [4] 0.045 | [5] 0.106 | [6] -0.003 | [7] -0.263 | [8] -0.027 | [9] 0.055 | [10] -0.021

MCM5 (UniProt P33992)
inactive: [1] 0.004 | [2] -0.021 | [3] 0.021 | [4] -0.018 | [5] -0.011 | [6] -0.022 | [7] -0.018 | [8] 0.003 | [9] -0.003 | [10] 0.013

MEF2D (UniProt Q14814)
inactive: [1] 0.002 | [2] 0.048 | [3] -0.035 | [4] -0.049 | [5] -0.029 | [6] 0.085 | [7] -0.032 | [8] 0.053 | [9] -0.037 | [10] -0.036

Reprinted at random: 2 records from the list.
MED22 isoform 2 (UniProt Q15528)
inactive: [1] 0.002 | [2] -0.004 | [3] 0.027 | [4] 0.025 | [5] -0.002 | [6] -0.016 | [7] 0.049 | [8] -0.061 | [9] 0 | [10] 0.011

MCM5 (UniProt P33992)
inactive: [1] 0.004 | [2] -0.021 | [3] 0.021 | [4] -0.018 | [5] -0.011 | [6] -0.022 | [7] -0.018 | [8] 0.003 | [9] -0.003 | [10] 0.013

Continuation:

MAX (UniProt P61244)
inactive: [1] 0.006 | [2] -0.023 | [3] 0.046 | [4] 0.029 | [5] 0.009 | [6] 0.015 | [7] 0.026 | [8] -0.002 | [9] -0.024 | [10] 0

MESD (UniProt Q14696)
inactive: [1] 0.012 | [2] 0.005 | [3] -0.028 | [4] -0.009 | [5] 0.02 | [6] 0.057 | [7] -0.005 | [8] -0.061 | [9] -0.005 | [10] -0.015

MCRIP2 (UniProt Q9BUT9)
inactive: [1] 0.056 | [2] 0.09 | [3] 0.151 | [4] 0.067 | [5] -0.088 | [6] -0.113 | [7] -0.036 | [8] -0.073 | [9] 0.073 | [10] 0.066

METTL15 (UniProt A6NJ78)
inactive: [1] 0.09 | [2] -0.255 | [4] -0.19 | [6] -0.08 | [7] -0.069 | [8] -0.009

MEF2A (UniProt Q02078)
inactive: [1] -0.041 | [2] 0.021 | [3] -0.042 | [4] 0.099 | [5] 0.048 | [6] -0.042 | [7] 0.03 | [8] 0.016 | [9] -0.038 | [10] -0.029

METTL9 (UniProt Q9H1A3)
inactive: [1] 0.054 | [2] -0.004 | [3] -0.231 | [4] -0.033 | [5] 0.025 | [6] -0.041 | [7] 0.083 | [8] -0.077 | [9] 0.049 | [10] -0.089

MCUB (UniProt Q9NWR8)
inactive: [1] -0.142 | [2] 0.119 | [3] 0.075 | [4] -0.12 | [5] 0.122 | [6] -0.262 | [7] -0.112 | [8] 0.143 | [9] -0.008 | [10] -0.014

MCL1 (UniProt Q07820)
inactive: [1] 0.045 | [2] -0.046 | [3] -0.068 | [4] -0.284 | [5] 0.211 | [6] -0.066 | [7] -0.125 | [8] 0.031 | [9] -0.045 | [10] 0.224

MECR (UniProt Q9BV79)
inactive: [1] -0.085 | [2] 0.012 | [3] -0.03 | [4] -0.004 | [5] 0.02 | [6] 0.07 | [7] -0.009 | [8] -0.041 | [9] 0.02 | [10] -0.028

MCOLN1 (UniProt Q9GZU1)
inactive: [1] -0.143 | [2] -0.092 | [3] -0.088 | [4] -0.297 | [5] -0.051 | [6] -0.104 | [7] 0.037 | [8] 0.018 | [9] 0.009 | [10] -0.012

MEAK7 (UniProt Q6P9B6)
inactive: [1] 0.027 | [2] 0 | [3] -0.058 | [4] 0.013 | [5] -0.06 | [6] -0.033 | [7] 0.047 | [8] 0.05 | [9] -0.026 | [10] 0.003

MED27 (UniProt Q6P2C8)
inactive: [1] 0.027 | [2] -0.101 | [3] -0.025 | [4] 0.004 | [5] -0.005 | [6] -0.145 | [7] 0.053 | [8] 0.042 | [9] 0 | [10] 0.023

MBOAT2 (UniProt Q6ZWT7)
inactive: [1] -0.006 | [2] -0.095 | [3] -0.178 | [4] 0.024 | [5] -0.027 | [6] -0.042 | [7] 0.12 | [8] 0.011 | [9] 0.03 | [10] -0.012

ME2 (UniProt P23368)
inactive: [1] -0.01 | [2] -0.01 | [3] 0.089 | [4] 0.031 | [5] 0.034 | [6] -0.022 | [7] 0.023 | [8] 0.01 | [9] -0.013 | [10] 0.033

MED13 (UniProt Q9UHV7)
inactive: [1] 0.053 | [2] -0.037 | [3] -0.027 | [4] 0.057 | [5] 0.019 | [6] -0.027 | [7] 0.03 | [8] 0.014 | [9] 0.051 | [10] -0.035

MCMBP (UniProt Q9BTE3)
inactive: [1] -0.01 | [2] -0.008 | [3] -0.031 | [4] -0.028 | [5] 0.008 | [6] -0.039 | [7] 0.024 | [8] 0.039 | [9] 0.014 | [10] -0.033

MEIOB isoform 2 (UniProt Q8N635)
inactive: [1] -0.032 | [2] 0.369 | [3] -0.192 | [4] 0.049 | [5] -0.002 | [7] -0.181

MED14 (UniProt O60244)
inactive: [1] 0.027 | [2] -0.013 | [3] -0.012 | [4] -0.015 | [5] 0.011 | [6] -0.021 | [7] -0.013 | [8] 0.011 | [9] 0.015 | [10] 0.047

MFGE8 (UniProt Q08431)
inactive: [1] -0.005 | [2] -0.093 | [3] 0.021 | [4] -0.024 | [5] 0.016 | [6] -0.015 | [7] 0.017 | [8] -0.002 | [9] -0.082 | [10] -0.046

MBOAT1 (UniProt Q6ZNC8)
inactive: [1] -0.024 | [2] 0.059 | [4] 0.19 | [6] -0.035 | [7] -0.051 | [8] 0.088 | [9] 0.195 | [10] 0.051

MBNL1 (UniProt C9JP00)
inactive: [1] -0.009 | [2] 0.031 | [3] -0.096 | [4] -0.009 | [5] -0.001 | [6] 0.05 | [7] -0.048 | [8] 0.069 | [9] 0.024 | [10] 0.098

MED10 (UniProt Q9BTT4)
inactive: [1] 0.042 | [2] -0.012 | [3] 0.031 | [4] -0.021 | [5] 0.043 | [6] 0.04 | [7] -0.066 | [8] -0.082 | [9] 0.025 | [10] -0.045
